No constants are given. Whether binding was seen depends on the method and setting. For some assays here: Binding seen in cells or lysates may run through a third protein. Some entries that bind do so weakly or less than the wild type. For some assays here: Tags and fused reporters may be left off the sequences shown.
Tests used:
[1] = target: β-catenin, endogenous in mouse oocytes (mouse (endogenous in mouse oocytes)) (UniProt Q02248); experiment: co-IP; lysate of 600 mouse oocytes; rabbit anti-Fam70a, anti-Wnt5a, anti-beta-catenin or rabbit IgG coupled to protein A/G beads, overnight at 4°C; IP buffer 20 mmol/L Tris-HCl pH 8.0, 10 mmol/L EDTA, 1 mmol/L EGTA, 150 mmol/L NaCl, 0.05% Triton X-100, 0.05% Nonidet P-40; endogenous proteins
[2] = target: T1, Wnt5a (wingless-type MMTV integration site family, member 5A), endogenous in mouse oocytes (mouse (endogenous in mouse oocytes)) (UniProt P22725); experiment: as above
T1 sequence: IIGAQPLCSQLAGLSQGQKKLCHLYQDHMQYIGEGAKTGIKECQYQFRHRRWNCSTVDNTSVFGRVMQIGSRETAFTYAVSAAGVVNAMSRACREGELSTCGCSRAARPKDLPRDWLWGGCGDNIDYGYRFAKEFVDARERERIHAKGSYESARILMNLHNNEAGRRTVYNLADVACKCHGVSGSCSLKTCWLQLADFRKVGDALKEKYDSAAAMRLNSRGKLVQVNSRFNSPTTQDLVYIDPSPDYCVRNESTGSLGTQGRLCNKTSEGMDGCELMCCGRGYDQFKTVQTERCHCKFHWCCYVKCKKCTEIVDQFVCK

By UniProt entry, the sequences of proteins in these tests, tags left out.
UniProt Q02248: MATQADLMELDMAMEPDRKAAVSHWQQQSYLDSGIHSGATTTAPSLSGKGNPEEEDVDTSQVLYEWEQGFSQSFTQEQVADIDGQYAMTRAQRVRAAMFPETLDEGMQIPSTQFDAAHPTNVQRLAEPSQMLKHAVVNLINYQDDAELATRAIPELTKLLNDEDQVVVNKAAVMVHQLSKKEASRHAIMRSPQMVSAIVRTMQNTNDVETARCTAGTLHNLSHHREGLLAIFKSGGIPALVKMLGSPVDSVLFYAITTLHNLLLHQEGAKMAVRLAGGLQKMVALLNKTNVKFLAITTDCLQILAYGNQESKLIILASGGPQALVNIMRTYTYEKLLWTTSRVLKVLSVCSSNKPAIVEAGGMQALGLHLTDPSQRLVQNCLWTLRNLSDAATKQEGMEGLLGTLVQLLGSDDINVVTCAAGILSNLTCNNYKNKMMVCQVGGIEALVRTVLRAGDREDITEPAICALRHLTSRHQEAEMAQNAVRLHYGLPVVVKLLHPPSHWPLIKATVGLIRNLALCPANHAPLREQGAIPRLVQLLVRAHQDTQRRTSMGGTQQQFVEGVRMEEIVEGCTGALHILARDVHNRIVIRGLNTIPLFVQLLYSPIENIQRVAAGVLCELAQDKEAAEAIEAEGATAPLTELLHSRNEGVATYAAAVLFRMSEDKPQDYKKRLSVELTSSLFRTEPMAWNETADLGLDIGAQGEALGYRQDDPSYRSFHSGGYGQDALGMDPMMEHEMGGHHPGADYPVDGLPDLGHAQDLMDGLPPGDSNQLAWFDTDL

[3] = target: T2, Strep II-Wnt5a (UniProt P22725); experiment: co-IP; lysate of NIH3T3 cells co-transfected with pcDNA3.1(+)-Flag-Fam70A and pcDNA3.1(+)-Strep II-Wnt5a, collected 48 hours after transfection
T2 sequence: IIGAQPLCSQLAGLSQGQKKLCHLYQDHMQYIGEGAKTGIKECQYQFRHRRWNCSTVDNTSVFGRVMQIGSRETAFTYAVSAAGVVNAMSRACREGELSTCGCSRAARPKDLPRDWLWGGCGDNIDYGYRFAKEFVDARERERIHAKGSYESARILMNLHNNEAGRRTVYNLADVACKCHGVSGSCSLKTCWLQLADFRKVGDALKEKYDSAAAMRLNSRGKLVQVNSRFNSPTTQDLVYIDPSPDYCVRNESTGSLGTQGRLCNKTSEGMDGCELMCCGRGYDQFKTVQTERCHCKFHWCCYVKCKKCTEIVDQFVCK

[4] = target: T3, Wnt5a in pGBKT7 (yeast two-hybrid fusion) (UniProt P22725); experiment: two-hybrid; Fam70A in pGADT7, Wnt5a in pGBKT7, yeast strain AH109; growth on SD/-Trp-Leu and SD/-Trp-Leu-His-Ade plates; empty vectors as negative controls
T3 sequence: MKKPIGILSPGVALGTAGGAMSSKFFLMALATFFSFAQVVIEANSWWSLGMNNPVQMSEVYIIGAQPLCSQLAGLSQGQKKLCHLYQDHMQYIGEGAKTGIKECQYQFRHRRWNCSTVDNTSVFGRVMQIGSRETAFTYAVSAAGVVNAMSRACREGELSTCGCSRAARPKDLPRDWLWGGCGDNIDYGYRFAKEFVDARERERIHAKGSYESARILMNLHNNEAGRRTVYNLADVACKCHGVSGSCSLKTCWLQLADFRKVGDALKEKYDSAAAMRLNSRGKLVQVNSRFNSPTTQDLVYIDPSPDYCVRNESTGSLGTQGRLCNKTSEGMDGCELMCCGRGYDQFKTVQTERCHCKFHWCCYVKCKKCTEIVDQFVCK

B1: Fam70A (family with sequence similarity 70, member A), endogenous in mouse oocytes (protein, UniProt Q8BHW5 1-351)
chain: MHQSLTQQRSSDMSLPDSMGAFNRRKRNSIYVTVTLLIVSMLILTVGLAATTRTQNVTVGGYYPGVILGFGSFLGIIGSNLIENKRQMLVASIVFISFGVIAAFCCAIVDGVFAARHIDLKPLYANRCHYVPKTSQREAEEVITSSSKITPSTRALRNLTQAVKEVNCPQLSRGLCTPRIRGNTCFCCDLYNCGNRVEITGGYYEYIDVSSCQDIIHLYHLLWSATILNIVGLFLGIITAAVLGGFKDMNPTLPALNCSVENAHPTVSYYARPQVASYNTYYHSPPHLPPYSAYDFQHSGVFPSSPPSGLSDEQEPQSPSPSPSYMWSSSAPPRYSPPYYPPFEKPPPYSP
In the case of B1, the binding [1] is reported as “binds” and the binding [2] is reported as “binds”.

B2: Flag-Fam70A (protein, UniProt Q8BHW5 1-351)
chain: MHQSLTQQRSSDMSLPDSMGAFNRRKRNSIYVTVTLLIVSMLILTVGLAATTRTQNVTVGGYYPGVILGFGSFLGIIGSNLIENKRQMLVASIVFISFGVIAAFCCAIVDGVFAARHIDLKPLYANRCHYVPKTSQREAEEVITSSSKITPSTRALRNLTQAVKEVNCPQLSRGLCTPRIRGNTCFCCDLYNCGNRVEITGGYYEYIDVSSCQDIIHLYHLLWSATILNIVGLFLGIITAAVLGGFKDMNPTLPALNCSVENAHPTVSYYARPQVASYNTYYHSPPHLPPYSAYDFQHSGVFPSSPPSGLSDEQEPQSPSPSPSYMWSSSAPPRYSPPYYPPFEKPPPYSP
B2 was tested, and the binding [3] was “binds”.

B3: Fam70A in pGADT7 (yeast two-hybrid fusion) (protein, UniProt Q8BHW5 1-351)
chain: MHQSLTQQRSSDMSLPDSMGAFNRRKRNSIYVTVTLLIVSMLILTVGLAATTRTQNVTVGGYYPGVILGFGSFLGIIGSNLIENKRQMLVASIVFISFGVIAAFCCAIVDGVFAARHIDLKPLYANRCHYVPKTSQREAEEVITSSSKITPSTRALRNLTQAVKEVNCPQLSRGLCTPRIRGNTCFCCDLYNCGNRVEITGGYYEYIDVSSCQDIIHLYHLLWSATILNIVGLFLGIITAAVLGGFKDMNPTLPALNCSVENAHPTVSYYARPQVASYNTYYHSPPHLPPYSAYDFQHSGVFPSSPPSGLSDEQEPQSPSPSPSYMWSSSAPPRYSPPYYPPFEKPPPYSP
With B3 the binding [4] was “binds”.

B4: Wnt5a (wingless-type MMTV integration site family, member 5A), endogenous in mouse oocytes (protein, UniProt P22725 62-380)
chain: IIGAQPLCSQLAGLSQGQKKLCHLYQDHMQYIGEGAKTGIKECQYQFRHRRWNCSTVDNTSVFGRVMQIGSRETAFTYAVSAAGVVNAMSRACREGELSTCGCSRAARPKDLPRDWLWGGCGDNIDYGYRFAKEFVDARERERIHAKGSYESARILMNLHNNEAGRRTVYNLADVACKCHGVSGSCSLKTCWLQLADFRKVGDALKEKYDSAAAMRLNSRGKLVQVNSRFNSPTTQDLVYIDPSPDYCVRNESTGSLGTQGRLCNKTSEGMDGCELMCCGRGYDQFKTVQTERCHCKFHWCCYVKCKKCTEIVDQFVCK
In the case of B4, the binding [1] is reported as “binds”.
